Values of other authors as cited in patent publication US9855226B2 (Relmada Therapeutics, Inc., priority 2012, dated 2018).

Tested on: NE reuptake
Conditions: cited from earlier work

CCC(=O)C(C[C@H](C)N(C)C)(c1ccccc1)c1ccccc1 [d-methadone]
Inhibition of NE reuptake: weak inhibitor of NE reuptake
